The values that follow come from paper PMC8121430.

Results are given in words; binding and its absence hold for the method and conditions named. Binding seen in cells or lysates may run through a third protein. Binding calls can cover weak binding; strength is not graded here. Tags and fused reporters may be left off the sequences shown.

This experiment has as its target T1, HA-tagged Vangl2 (wild type, full length) (UniProt Q91ZD4).
T1 sequence: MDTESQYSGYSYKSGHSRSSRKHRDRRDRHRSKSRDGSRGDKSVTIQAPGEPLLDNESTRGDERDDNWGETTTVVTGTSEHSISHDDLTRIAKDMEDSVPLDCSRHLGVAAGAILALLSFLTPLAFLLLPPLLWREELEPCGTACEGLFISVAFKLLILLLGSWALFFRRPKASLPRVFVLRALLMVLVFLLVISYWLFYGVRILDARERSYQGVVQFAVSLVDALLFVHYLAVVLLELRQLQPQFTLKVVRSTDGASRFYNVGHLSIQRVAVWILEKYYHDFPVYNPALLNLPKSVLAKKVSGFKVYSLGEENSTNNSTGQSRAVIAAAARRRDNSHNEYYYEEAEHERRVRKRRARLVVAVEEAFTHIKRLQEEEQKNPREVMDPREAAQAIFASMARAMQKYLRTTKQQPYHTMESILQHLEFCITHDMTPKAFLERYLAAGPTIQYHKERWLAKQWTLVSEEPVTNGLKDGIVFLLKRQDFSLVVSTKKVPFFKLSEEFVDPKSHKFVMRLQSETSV
Put plainly: co-IP; overexpressed tagged proteins in HEK293T cells (Flag-tagged KBTBD7 forms, KBTBD6, CUL3; HA-tagged Vangl2 or CUL3); Vangl2-KBTBD7 also tested with or without Wnt5a and the CK1 inhibitor (fig. S5A).

Turning to “Flag-tagged KBTBD7-Kelch domain (human (cDNA from HEK293T cells)) (domain or fragment)”, the binding entry is “binds”.

In the case of “Flag-tagged KBTBD7-∆Kelch (human (cDNA from HEK293T cells)) (domain or fragment)”, the binding result is on record as “binds weakly”.
